The other results are listed elsewhere or left out. Hit calls seldom repeat between salt and free forms of one compound.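 Kinases were expressed as nanoluciferase fusions in K562 cells and luminescence was read every 4 h between 2 and 18 h as percent of control, DMSO set to 100% and a positive control to 0%. A time point counts as decreased when the signal drops significantly (2 sigma). The hit call is the authors' own, does not follow from the count of time points alone, and its rule is not shown.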
Legend:
Test in all cases: number of time points (of 5) at which kinase-Nluc abundance scored as decreased, DMSO-normalised (count); higher = more persistent destabilization
Details in all cases: K562; 2-18 h
[1] = molecular target: EGFR_L861Q (UniProt P00533)
[2] = molecular target: EGFR_T790M (UniProt P00533)
[3] = molecular target: EPHA2 (UniProt P29317)
[4] = molecular target: ERBB3 (UniProt P21860)
[5] = molecular target: ERBB4_R711C (clone: ERBB4_mut) (UniProt Q15303)
[6] = molecular target: ERN1 (UniProt O75460)
[7] = molecular target: FGFR1 (UniProt P11362)
[8] = molecular target: FGFR2 (UniProt P21802)
[9] = molecular target: FGFR3 (UniProt P22607)
[10] = molecular target: FGR (UniProt P09769)

The chains behind the UniProt entries cited, without tags or fusion partners. Where a name states a change or a piece, a line headed by the entry shows the natural chain unless it says otherwise.
UniProt P29317, whole entry: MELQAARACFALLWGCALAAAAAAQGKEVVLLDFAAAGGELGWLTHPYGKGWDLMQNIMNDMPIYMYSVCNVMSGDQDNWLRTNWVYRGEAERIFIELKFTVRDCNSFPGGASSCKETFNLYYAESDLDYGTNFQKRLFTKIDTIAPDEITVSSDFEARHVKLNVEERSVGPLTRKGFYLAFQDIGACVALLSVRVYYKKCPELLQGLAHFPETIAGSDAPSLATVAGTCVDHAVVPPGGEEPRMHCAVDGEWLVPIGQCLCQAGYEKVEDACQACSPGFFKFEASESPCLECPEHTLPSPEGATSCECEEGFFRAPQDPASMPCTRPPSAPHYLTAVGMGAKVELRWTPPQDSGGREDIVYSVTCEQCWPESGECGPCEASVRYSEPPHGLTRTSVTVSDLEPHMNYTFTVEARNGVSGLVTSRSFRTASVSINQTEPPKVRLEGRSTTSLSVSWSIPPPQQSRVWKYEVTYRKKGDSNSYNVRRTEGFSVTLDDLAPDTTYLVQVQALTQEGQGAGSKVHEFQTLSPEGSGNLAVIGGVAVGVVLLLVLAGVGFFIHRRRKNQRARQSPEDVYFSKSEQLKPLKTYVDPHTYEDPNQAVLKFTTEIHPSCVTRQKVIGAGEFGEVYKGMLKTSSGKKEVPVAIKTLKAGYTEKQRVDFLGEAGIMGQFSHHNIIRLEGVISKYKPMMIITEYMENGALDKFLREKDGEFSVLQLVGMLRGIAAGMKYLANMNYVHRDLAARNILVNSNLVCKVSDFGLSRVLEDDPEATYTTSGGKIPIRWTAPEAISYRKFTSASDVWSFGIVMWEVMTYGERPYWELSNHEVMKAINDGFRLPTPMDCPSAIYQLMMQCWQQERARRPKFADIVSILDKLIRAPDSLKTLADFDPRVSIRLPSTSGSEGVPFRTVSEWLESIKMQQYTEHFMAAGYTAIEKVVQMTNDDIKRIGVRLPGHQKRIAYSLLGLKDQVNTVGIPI
UniProt P21860, whole entry: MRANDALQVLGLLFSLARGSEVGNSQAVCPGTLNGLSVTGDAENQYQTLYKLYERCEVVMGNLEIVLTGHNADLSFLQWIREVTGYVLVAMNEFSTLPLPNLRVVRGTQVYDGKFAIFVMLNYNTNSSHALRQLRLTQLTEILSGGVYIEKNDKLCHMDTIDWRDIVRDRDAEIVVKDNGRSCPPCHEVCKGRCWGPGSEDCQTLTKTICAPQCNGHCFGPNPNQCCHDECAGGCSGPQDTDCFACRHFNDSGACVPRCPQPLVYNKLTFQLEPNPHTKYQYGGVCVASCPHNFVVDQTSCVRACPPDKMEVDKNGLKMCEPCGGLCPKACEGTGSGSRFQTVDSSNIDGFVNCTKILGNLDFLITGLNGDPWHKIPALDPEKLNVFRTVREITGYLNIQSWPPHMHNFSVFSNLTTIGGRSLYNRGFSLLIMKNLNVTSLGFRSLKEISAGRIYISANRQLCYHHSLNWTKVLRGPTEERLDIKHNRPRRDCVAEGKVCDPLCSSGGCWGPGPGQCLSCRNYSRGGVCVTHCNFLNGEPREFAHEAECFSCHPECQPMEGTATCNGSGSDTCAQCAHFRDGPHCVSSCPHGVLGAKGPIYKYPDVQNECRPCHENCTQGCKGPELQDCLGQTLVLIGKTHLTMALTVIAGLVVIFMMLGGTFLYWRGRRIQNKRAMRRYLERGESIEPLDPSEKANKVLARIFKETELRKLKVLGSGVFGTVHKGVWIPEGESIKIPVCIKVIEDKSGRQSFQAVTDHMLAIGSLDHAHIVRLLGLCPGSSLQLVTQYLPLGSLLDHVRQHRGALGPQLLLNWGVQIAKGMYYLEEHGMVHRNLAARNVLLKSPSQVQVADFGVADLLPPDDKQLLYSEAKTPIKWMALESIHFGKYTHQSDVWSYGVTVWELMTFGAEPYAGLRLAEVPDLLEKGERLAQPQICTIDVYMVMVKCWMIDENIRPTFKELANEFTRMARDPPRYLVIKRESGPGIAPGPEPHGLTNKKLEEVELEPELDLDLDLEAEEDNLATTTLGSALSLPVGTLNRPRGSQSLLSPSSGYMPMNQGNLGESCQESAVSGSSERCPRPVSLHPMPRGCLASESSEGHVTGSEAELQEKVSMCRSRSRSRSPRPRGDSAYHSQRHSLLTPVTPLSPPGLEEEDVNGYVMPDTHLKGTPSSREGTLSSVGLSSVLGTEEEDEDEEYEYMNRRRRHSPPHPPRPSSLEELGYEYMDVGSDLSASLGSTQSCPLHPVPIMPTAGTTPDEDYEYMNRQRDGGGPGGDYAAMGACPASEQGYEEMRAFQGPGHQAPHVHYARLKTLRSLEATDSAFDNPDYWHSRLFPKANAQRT
UniProt Q15303, whole entry R711C: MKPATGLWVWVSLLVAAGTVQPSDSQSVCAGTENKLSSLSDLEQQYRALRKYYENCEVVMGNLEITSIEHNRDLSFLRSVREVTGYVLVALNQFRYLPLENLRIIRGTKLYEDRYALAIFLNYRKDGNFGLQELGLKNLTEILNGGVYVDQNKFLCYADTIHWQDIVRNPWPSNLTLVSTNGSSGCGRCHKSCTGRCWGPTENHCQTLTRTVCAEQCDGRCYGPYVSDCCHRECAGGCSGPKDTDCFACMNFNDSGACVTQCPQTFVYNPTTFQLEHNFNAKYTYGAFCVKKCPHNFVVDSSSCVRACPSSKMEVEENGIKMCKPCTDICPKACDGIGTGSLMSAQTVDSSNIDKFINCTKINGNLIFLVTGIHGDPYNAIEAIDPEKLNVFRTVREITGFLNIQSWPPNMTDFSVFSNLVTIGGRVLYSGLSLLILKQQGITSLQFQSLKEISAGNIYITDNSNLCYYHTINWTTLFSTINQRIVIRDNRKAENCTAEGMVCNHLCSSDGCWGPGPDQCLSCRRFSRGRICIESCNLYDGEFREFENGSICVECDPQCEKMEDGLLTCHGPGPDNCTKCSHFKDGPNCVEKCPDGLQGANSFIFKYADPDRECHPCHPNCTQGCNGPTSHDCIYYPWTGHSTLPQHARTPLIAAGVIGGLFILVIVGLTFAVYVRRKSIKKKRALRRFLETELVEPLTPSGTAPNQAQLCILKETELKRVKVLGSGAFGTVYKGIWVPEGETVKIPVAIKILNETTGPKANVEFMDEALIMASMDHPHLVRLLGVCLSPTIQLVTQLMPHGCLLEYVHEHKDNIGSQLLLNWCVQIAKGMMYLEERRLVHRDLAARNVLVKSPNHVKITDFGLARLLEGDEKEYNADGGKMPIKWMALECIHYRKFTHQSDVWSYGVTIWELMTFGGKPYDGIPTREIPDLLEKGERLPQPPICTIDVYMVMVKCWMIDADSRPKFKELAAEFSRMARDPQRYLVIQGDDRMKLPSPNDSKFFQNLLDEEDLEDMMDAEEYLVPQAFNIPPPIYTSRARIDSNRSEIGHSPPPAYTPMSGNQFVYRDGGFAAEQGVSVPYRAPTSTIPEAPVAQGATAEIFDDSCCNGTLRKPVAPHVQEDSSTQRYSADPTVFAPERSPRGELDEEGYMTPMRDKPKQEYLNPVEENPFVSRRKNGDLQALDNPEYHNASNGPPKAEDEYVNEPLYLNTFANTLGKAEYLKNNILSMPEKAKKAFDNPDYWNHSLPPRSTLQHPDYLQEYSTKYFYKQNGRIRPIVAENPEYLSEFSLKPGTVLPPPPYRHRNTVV
UniProt O75460: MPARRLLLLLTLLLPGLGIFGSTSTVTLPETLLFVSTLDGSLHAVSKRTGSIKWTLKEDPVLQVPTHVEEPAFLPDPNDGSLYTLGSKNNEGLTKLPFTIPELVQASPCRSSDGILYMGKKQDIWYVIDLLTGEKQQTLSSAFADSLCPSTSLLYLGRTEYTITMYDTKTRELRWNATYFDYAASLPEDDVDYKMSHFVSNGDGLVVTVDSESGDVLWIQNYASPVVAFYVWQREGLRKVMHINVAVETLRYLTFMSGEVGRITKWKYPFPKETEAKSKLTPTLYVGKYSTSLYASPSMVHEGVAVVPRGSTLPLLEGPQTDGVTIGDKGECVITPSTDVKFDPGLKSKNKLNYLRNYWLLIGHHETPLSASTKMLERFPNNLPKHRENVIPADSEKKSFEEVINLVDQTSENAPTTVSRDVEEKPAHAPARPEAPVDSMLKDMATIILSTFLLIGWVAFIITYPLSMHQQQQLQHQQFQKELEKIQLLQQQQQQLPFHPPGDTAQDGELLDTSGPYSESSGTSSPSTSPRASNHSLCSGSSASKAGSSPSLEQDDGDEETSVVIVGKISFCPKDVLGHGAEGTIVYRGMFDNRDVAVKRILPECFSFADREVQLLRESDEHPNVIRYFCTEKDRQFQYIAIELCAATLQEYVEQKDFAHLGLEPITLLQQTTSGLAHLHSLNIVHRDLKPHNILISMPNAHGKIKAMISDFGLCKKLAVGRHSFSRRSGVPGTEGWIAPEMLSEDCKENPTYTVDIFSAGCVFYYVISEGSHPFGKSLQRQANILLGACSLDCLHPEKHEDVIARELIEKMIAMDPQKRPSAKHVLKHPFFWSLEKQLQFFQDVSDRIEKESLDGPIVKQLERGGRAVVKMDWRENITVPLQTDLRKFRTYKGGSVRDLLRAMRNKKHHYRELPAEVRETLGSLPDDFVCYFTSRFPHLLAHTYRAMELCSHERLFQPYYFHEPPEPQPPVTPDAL
UniProt P11362, whole entry, looked up: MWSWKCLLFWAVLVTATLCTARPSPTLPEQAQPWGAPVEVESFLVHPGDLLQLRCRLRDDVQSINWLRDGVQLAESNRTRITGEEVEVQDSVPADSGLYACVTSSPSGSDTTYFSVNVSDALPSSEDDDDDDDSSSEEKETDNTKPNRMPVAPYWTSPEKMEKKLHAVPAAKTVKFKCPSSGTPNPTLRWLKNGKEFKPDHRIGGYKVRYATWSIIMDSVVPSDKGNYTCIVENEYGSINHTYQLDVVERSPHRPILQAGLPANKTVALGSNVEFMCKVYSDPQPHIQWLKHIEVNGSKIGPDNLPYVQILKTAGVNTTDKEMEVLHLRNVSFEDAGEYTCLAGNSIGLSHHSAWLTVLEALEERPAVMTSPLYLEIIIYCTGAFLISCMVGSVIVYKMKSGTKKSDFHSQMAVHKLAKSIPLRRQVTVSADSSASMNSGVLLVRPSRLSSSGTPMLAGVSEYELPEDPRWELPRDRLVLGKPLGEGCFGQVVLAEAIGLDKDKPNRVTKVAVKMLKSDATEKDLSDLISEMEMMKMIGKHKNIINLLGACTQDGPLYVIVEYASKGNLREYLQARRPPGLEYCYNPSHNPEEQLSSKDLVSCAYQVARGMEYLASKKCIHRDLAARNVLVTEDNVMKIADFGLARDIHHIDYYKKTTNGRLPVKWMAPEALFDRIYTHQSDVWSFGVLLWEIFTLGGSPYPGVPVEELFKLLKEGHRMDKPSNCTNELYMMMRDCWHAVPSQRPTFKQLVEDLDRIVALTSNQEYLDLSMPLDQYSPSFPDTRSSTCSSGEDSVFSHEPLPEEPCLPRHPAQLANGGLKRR
UniProt P21802, whole entry, looked up: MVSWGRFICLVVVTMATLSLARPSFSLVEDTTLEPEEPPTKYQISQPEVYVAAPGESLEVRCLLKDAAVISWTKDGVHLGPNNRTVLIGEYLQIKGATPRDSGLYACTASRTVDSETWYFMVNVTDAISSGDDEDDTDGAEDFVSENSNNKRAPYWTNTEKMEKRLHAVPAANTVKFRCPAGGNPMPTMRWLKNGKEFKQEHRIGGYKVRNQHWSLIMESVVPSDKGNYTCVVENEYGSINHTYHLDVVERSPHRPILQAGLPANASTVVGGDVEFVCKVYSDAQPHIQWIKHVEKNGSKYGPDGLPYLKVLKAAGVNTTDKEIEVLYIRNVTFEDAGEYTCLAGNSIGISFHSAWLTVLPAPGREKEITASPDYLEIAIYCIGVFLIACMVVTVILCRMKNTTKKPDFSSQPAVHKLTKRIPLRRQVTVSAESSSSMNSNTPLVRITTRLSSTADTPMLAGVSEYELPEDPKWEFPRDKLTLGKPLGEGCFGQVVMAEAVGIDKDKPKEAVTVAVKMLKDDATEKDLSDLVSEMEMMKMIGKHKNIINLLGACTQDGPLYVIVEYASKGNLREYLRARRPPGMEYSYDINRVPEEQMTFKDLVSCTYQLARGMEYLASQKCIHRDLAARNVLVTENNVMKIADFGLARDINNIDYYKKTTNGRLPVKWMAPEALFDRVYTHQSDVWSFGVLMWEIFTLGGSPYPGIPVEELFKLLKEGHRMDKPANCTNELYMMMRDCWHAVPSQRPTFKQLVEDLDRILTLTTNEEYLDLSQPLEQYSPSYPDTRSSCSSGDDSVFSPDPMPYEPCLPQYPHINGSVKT

Measured: number of time points

O=C(CNC(=O)c1ccc(-c2ccccc2)cc1)NC1CCCc2ccccc21 (stereo not given) [TAO Kinase inhibitor 1] (10 µM)
0: all assays above

CC(=NNC(=O)c1ccc(C)c(Br)c1)c1ccc(O)cc1O [mTOR inhibitor-1] (2.5 µM)
0: all assays above

Cn1cc(Nc2nccc(N3C[C@H]4CC[C@@H](C3)N4C(=O)[C@@H]3CC3(F)F)n2)cn1 (10 µM)
0: all assays above

O=C1c2ccc(Nc3ccc(F)cc3F)cc2CCc2ccc(OC[C@H](O)CO)cc21 [Skepinone-L] (2.5 µM)
0: all assays above

CNCc1ccccc1-c1csc([C@@H](C)Nc2nc(C)nc3cc(OC)c(OC)cc23)c1 (2.5 µM)
1: [4] | [8]
0: all other assays above

Cc1c(CN2CCN(S(C)(=O)=O)CC2)sc2c(N3CCOCC3)nc(-c3cnc(N)nc3)nc12 (2.5 µM)
0: all assays above

COc1cc(F)c(F)c(Nc2ccc(I)cc2F)c1NS(=O)(=O)C1(C[C@H](O)CO)CC1 [Refametinib] (10 µM)
2: [1] | [8]
1: [5]
3: [4]
0: all other assays above

O=C(O)c1cc(O)ccc1O [2,5-Dihydroxybenzoic acid] (10 µM)
0: all assays above

Nc1ncc(-c2cccc(N3CCNCC3)c2)cc1C(=O)Nc1ccncc1 [PKC-iota inhibitor 1] (10 µM)
0: all assays above

O=c1cc(O)cc(/C=C/c2ccc(O)c(O)c2)o1 [Hispidin] (10 µM)
0: all assays above

OC(COc1ccc(C(F)(F)F)cc1)CN(Cc1ccccc1)Cc1ccccc1 (stereo not given) (2.5 µM)
0: all assays above

OC[C@H]1O[C@@H](Oc2cc3c(O)cc(O)cc3[o+]c2-c2cc(O)c(O)c(O)c2)[C@H](O)[C@@H](O)[C@@H]1O [Delphinidin 3-glucoside (chloride)] (10 µM)
0: all assays above

O=C(NCCCNC(=O)Nc1cccc(C2=NCCN2)c1)Nc1cccc(C2=NCCN2)c1 [p32 Inhibitor M36] (10 µM)
0: all assays above

CCOc1cc(C(=O)N2CCC(N3CCN(C)CC3)CC2)ccc1Nc1ncc2c(n1)N(C1CCCC1)c1ccccc1C(=O)N2C (10 µM)
0: all assays above

CCN(CC)c1ccc2cc(C(=O)N3CCN(C(=O)C4=Cc5c(Br)cccc5S4(=O)=O)CC3)c(=O)oc2c1 (2 µM)
0: all assays above

C[C@@]1(O)CCC[C@H]1n1c(=O)c(C(F)F)cc2cnc(NC3CCN(S(C)(=O)=O)CC3)nc21 (2.5 µM)
2: [8]
3: [4] | [5]
0: all other assays above

O=C(Nc1ccc2[nH]nc(-c3ccncc3)c2c1)[C@@H]1CCN(CC(=O)N2CCN(c3ccc(-c4ncccn4)cc3)CC2)C1 (2.5 µM)
0: all assays above

Quoted at random: 2 records from the list.
O=c1cc(O)cc(/C=C/c2ccc(O)c(O)c2)o1 [Hispidin] (10 µM)
0: all assays above

O=C(NCCCNC(=O)Nc1cccc(C2=NCCN2)c1)Nc1cccc(C2=NCCN2)c1 [p32 Inhibitor M36] (10 µM)
0: all assays above

Carrying on:

O=C(Nc1cccnc1)c1cc(C(=O)c2c(F)cccc2Br)c[nH]1 (10 µM)
0: all assays above

CC1CCc2nc(N)c(C#N)c(-c3cccnc3)c2C1 (stereo not given) (10 µM)
0: all assays above

COCCOc1cnc(Sc2cc(C)c(-c3csc(NC(=O)c4ccncc4)n3)c(C)c2)cn1 [T-1101 (tosylate)] (2.5 µM)
0: all assays above

CN(CC(=O)N(Cc1ccc(C2CCCCC2)cc1)c1ccc(C(=O)O)cc1)S(=O)(=O)c1c(F)c(F)c(F)c(F)c1F (2.5 µM)
0: all assays above

C#CCN(C)C(=O)CCNc1nc(N2CCN(C(=O)C=C)CC2)c2cc(Cl)c(-c3c(O)cccc3F)c(F)c2n1 [ARS-1323-alkyne] (2.5 µM)
0: all assays above

COc1cc2c[n+](C)c3c4cc5c(cc4ccc3c2cc1OC)OCO5 [Nitidine (chloride)] (2 µM)
0: all assays above

COc1cc2ncnc(Nc3cccc(Cl)c3)c2cc1OC (10 µM)
0: all assays above

COc1ccc(C(=C2C(=O)Nc3ccccc32)c2ccc(OC)cc2)cc1 (10 µM)
0: all assays above

CC(C)NC(=O)N1CC[C@H](NC2=Nc3cc(F)ccc3N(CC(F)F)c3ccc(Cl)cc32)C1 (10 µM)
0: all assays above

Cc1noc(C)c1-c1ccc(-c2cc(C(N)=O)c(NC(N)=O)s2)c(O[C@H]2CCNC2)c1 (10 µM)
0: all assays above

CN1C(=O)C(Cc2c[nH]c3ccccc23)NC1=S (stereo not given) [Necrostatin-1] (10 µM)
0: all assays above

Cc1cc2cc(Nc3ccnc(Nc4ccc5[nH]c(C)cc5c4)n3)ccc2[nH]1 (2.5 µM)
0: all assays above

O=C(NCCO)c1ccc2c(c1)nc(Nc1cccc(Cl)c1)c1ccncc12 [CK2 inhibitor 2] (10 µM)
0: all assays above

CS(=O)(=O)c1ccc(-c2cnc(N)c(C(=O)Nc3ccccc3)n2)cc1 (10 µM)
0: all assays above

C=C1C(=O)O[C@@H]2C[C@@]3(C)CCC[C@H](C)C3=C[C@H]12 [Alantolactone] (10 µM)
0: all assays above

O=C(Nc1cc(Oc2cc(F)c(NC(=O)C3(C(=O)Nc4ccc(F)cc4)CC3)cc2F)ccn1)C1CC1 [Altiratinib] (10 µM)
0: all assays above

Reference: the supplement of paper PMC12823440, “Inhibitors supercharge kinase turnover through native proteolytic circuits” (Nature, 2025)
